# From the supplement of paper PMC3334620
# Whole data set: some 33,000 sequences, median “E-score (-0.5 to 0.5)” near -0.0014, cut for the highest 2% near 0.25. The list shows a part of the results.
# Biological target: T1, Cad1 (UniProt P24813)
# T1 sequence: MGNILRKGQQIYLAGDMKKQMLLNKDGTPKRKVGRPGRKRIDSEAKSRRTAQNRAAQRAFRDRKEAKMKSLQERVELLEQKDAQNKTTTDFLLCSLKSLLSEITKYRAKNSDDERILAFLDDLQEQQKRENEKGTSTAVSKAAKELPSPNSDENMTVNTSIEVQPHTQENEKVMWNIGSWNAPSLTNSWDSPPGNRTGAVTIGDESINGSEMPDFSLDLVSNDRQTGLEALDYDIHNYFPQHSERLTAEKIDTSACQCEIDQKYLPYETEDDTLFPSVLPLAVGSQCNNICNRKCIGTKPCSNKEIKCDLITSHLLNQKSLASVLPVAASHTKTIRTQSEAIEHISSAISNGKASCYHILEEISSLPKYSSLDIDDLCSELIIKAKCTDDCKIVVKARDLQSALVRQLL
# Assay: PBM E-score (8-mer binding enrichment) (E-score (-0.5 to 0.5)); higher = stronger / more preferred TF binding
# Details: protein concentration: 100 nM; construct: GST-full length
# In short: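 The E-score, a modified Wilcoxon-Mann-Whitney statistic, was computed by the Universal PBM Analysis Suite for every ungapped eight-base word pooled with its reverse complement. Scans behind it were normalised with masliner after bound GST-tagged yeast transcription factors were detected with fluorescent anti-GST. The proteins, at about 100-200 nM, had been applied to universal all-10-mer Agilent arrays made double-stranded by primer extension.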
row,Sequence,PBM E-score
1,ACGCAAAA,0.00524
2,CCCCTACA,-0.26
3,AGTTTCAT,0.147
4,TACAGACA,0.0428
5,CCTTCCGA,-0.0899
6,GGTTTTAC,-0.244
7,TGACGACA,0.202
8,CCCGCGCA,0.106
9,TACATTCA,0.0391
10,CCACCGCA,-0.00127
11,AGAAGCTG,-0.0145
12,ACCTTAGA,0.0001
13,AGTAGAAC,-0.155
14,ACAGATTA,0.00085
15,AGGATGCC,-0.237
16,CTAGAAGC,-0.245
17,CCAGTAGA,-0.0191
18,ATCATAAC,0.273
19,GGATCTTA,-0.0103
20,AGCATTCG,-0.0729
21,ATTGTCCA,0.132
22,AACAATTC,0.038
23,AGGTTTAG,-0.145
24,CAAAAAGC,0.193
25,CGCGCGGC,0.261

row,Sequence,PBM E-score
1,ATCTTAAC,0.216
2,TATCCCGA,0.127
3,CAGGTCTC,-0.164
4,GAATCCCA,0.0207
5,TCGTTCAA,0.0576
6,CTATTAAA,0.00283
7,CCTGGCAC,-0.137
8,AATTAGTG,0.316
9,ATTGCTGC,0.0684
10,CAACCCTC,-0.0405
11,GGTTAACA,0.129
12,CCCGGCTA,-0.235
13,CGGAGTCA,-0.0932
14,AGTATAAC,-0.12
15,CAGGGCCG,-0.00414
16,CACTGGGA,-0.126
17,TAGTTCCA,0.122
18,AATATCTG,-0.00633
19,ATTCTTCA,0.0734
20,AATGGTGC,-0.131
21,AGGGGGGA,-0.328
22,AGCTCCGC,0.0717
23,AACAAGAC,0.0975
24,ACTAACGC,0.094
25,CGGTACAC,-0.123

row,Sequence,PBM E-score
1,GACTGATA,-0.121
2,AACGGCGA,0.153
3,GGGCATCA,-0.201
4,CTGATGTC,0.141
5,ACTGAACC,-0.16
6,TCGGAACA,0.268
7,GGGGCTGA,-0.133
8,ACTCCTAG,-0.105
9,ATGACACC,-0.0294
10,AGAGTCGC,0.0279
11,GAGCGTCC,-0.00901
12,AATGGACG,0.0996
13,CGTAGCCC,-0.125
14,GAAACCGC,0.183
15,AATGTTGG,0.166
16,ATTTAACG,0.158
17,AAGGGCCT,-0.199
18,ATCGATTA,0.275
19,GCACTACA,-0.126
20,ACGTATCT,-0.105
21,CCAATGCC,-0.153
22,CCAGCGGG,-0.121
23,ATATGTAG,-0.0656
24,AAAACACG,0.149
25,GCTGGCTA,-0.224

row,Sequence,PBM E-score
1,AGCTTAAC,0.0304
2,AGTTTTCC,0.121
3,GCAGTAAA,-0.0247
4,ATGCAGAA,0.0628
5,CGAATACA,-0.0779
6,ATATCATG,0.0662
7,CCTTCTAA,-0.149
8,ATGTGCAG,-0.188
9,CCTAGGGC,-0.118
10,ATTATTAC,0.0832
11,CATGAATG,-0.0244
12,AATAGGGG,0.0361
13,CGCAGGAG,-0.101
14,GCCCACAC,-0.0589
15,AAGGTGTC,0.0418
16,ACGGTAGT,0.047
17,CTATGCTC,-0.0378
18,ATTAGGGA,-0.0914
19,AAACGCTG,0.0247
20,AGAAAGAT,0.0047
21,CATACTTC,-0.0958
22,CTTCCTTC,-0.183
23,TGCGGCAA,-0.0179
24,GTAACCAC,-0.22
25,ATACCTGG,-0.261

# In a second layout: entries from further up
row | Sequence | PBM E-score
23 | ATATGTAG | -0.0656
24 | AAAACACG | 0.149
25 | GCTGGCTA | -0.224
1 | AGCTTAAC | 0.0304

# Single entries from the entries so far:
# AACAATTC – PBM E-score: 0.038
# CGCAGGAG – PBM E-score: -0.101
# ATTCTTCA – PBM E-score: 0.0734

# Remaining list, next part:

row,Sequence,PBM E-score
1,CGATGTGA,-0.0321
2,TCCAAACA,-0.135
3,GACAAGAC,-0.0209
4,CGCTTTTC,-0.00565
5,CGAAGACG,-0.177
6,AACGTTGT,0.118
7,CAGTGAGA,-0.0333
8,AATCAGCC,0.0909
9,TTCTTCAA,0.0965
10,TAAGATAA,-0.0849
11,CTGTTGTC,0.0122
12,CTCTGGCA,-0.0245
13,CTTTTACC,-0.0262
14,CGTCTTAA,0.067
15,GTTTATGA,0.142
16,ATCTTGAA,0.11
17,AGGGTACA,-0.118
18,ACAGGGTC,-0.0301
19,CGTGGGCC,-0.0973
20,AGCAAAAT,0.213
21,CTGGACGA,-0.167
22,AAAACGGC,-0.127
23,CGGAACAA,0.29
24,AATGTTAC,0.0878
25,CGGTCTTA,-0.199

row,Sequence,PBM E-score
1,AGTCGGTC,-0.196
2,CACATACC,-0.0311
3,GGTGGCGA,-0.0722
4,GAACTTAC,0.0504
5,GTCACGAA,0.0125
6,CGGACAAA,0.0973
7,AGCTTCTC,-0.137
8,CTGCCCAC,-0.149
9,GCATAAGC,0.254
10,ACTCCTAC,-0.0357
11,AGACTCGG,-0.214
12,CAACATTA,0.106
13,ATACCAAG,0.141
14,ACGTCGAC,0.104
15,ACCACTCT,-0.187
16,ACTTATCG,0.128
17,CCGGTTCC,0.0262
18,CGAGCCCG,-0.134
19,TGCGAGAA,-0.0892
20,CCTACTAA,0.00658
21,CCCTAACC,-0.157
22,TATGCTGA,0.0891
23,ACTGCAAA,0.129
24,CCGTGGAA,0.043
25,CCTGGCAG,-0.044

row,Sequence,PBM E-score
1,ATCAGCAT,0.192
2,ATGAACCA,0.216
3,CGACCTCA,-0.0306
4,CCCTACGA,-0.147
5,AAGTGGGC,0.0945
6,ACGAGGAG,0.056
7,AAAAGTTT,-0.0158
8,CATGTGTC,0.0954
9,AATATACC,0.112
10,ACCATACC,-0.084
11,CCCAGAGA,-0.169
12,CTTCGAGA,-0.0393
13,GTCAAAAA,0.019
14,AAAGTGAC,-0.0945
15,CCTAGTCA,-0.0765
16,ACGACAAG,-0.127
17,GACAGTCC,-0.144
18,TAAATATA,0.277
19,ACTGGCCT,-0.0604
20,GCTTGGCA,-0.00418
21,ACGGCTGG,-0.09
22,CGCTGATA,0.0528
